Measurements reported in PubChem BioAssay AID1224830 (NIAID, 2016).

Assay: 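Regulators of TLR4 signalling towards TNF-alpha in macrophage-like cells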 (primary screen)
System: human THP-1 monocytic leukaemia cells, TNF dual-luciferase reporter clone, PMA-differentiated to macrophage-like cells
Reagents: siRNA pool against human genes, 50 nM
Timing: LPS for 4 h, given about 3 days after siRNA transfection
Conditions: bacterial LPS (TLR4 ligand), 10 ng/ml
Measurement: 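TNF firefly reporter luminescence divided by renilla, normalised to the plate median, then turned into a robust z-score for each replicate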
Direction: TNF reporter robust z-score: higher = stronger TNF reporter response to LPS
Hit rule: 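a well is active when its z-score exceeds 2.8 or falls below -1.5; control wells carry no call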
Here is one part, drawn at random, of about 18,000 deposited reagents. About 2,900 of all reagents (16%) were called active. 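Calls are made per well; low scores hint the gene aids the LPS response, high scores that it dampens it.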 Entries without a mark were called inactive. Repeated entries: four replicate wells of each siRNA pool.

Gene | TNF reporter robust z-score
DIPK1C (divergent protein kinase domain 1C) | -0.91
DIPK1C (divergent protein kinase domain 1C) | -0.31
DIPK1C (divergent protein kinase domain 1C) | -0.93
DIPK1C (divergent protein kinase domain 1C) | -0.75
STX5 (syntaxin 5) | 1.08
STX5 (syntaxin 5) | 1.03
STX5 (syntaxin 5) | 0.15
STX5 (syntaxin 5) | 2.04
GRIN2A (glutamate ionotropic receptor NMDA type subunit 2A) | -0.93
GRIN2A (glutamate ionotropic receptor NMDA type subunit 2A) | -0.23
GRIN2A (glutamate ionotropic receptor NMDA type subunit 2A) | 0.3
GRIN2A (glutamate ionotropic receptor NMDA type subunit 2A) | -0.5
PTCHD3 (patched domain containing 3 (gene/pseudogene)) | -0.06
PTCHD3 (patched domain containing 3 (gene/pseudogene)) | -0.25
PTCHD3 (patched domain containing 3 (gene/pseudogene)) | -0.63
PTCHD3 (patched domain containing 3 (gene/pseudogene)) | -0.02
CCDC15 (coiled-coil domain containing 15) | 0.48
CCDC15 (coiled-coil domain containing 15) | -0.73
CCDC15 (coiled-coil domain containing 15) | -0.62
CCDC15 (coiled-coil domain containing 15) | -1.38
ATP6V0A4 (ATPase H+ transporting V0 subunit a4) | -1.08
ATP6V0A4 (ATPase H+ transporting V0 subunit a4) | -1.7 (active)
ATP6V0A4 (ATPase H+ transporting V0 subunit a4) | -1.51 (active)
ATP6V0A4 (ATPase H+ transporting V0 subunit a4) | -1.19
TTC29 (tetratricopeptide repeat domain 29) | 0.85
TTC29 (tetratricopeptide repeat domain 29) | 1.03
TTC29 (tetratricopeptide repeat domain 29) | -0.04
TTC29 (tetratricopeptide repeat domain 29) | 1.15
LTBP2 (latent transforming growth factor beta binding protein 2) | -0.39
LTBP2 (latent transforming growth factor beta binding protein 2) | 0.59
LTBP2 (latent transforming growth factor beta binding protein 2) | -0.18
OGDHL (oxoglutarate dehydrogenase L) | 0.15
OGDHL (oxoglutarate dehydrogenase L) | 1.69
OGDHL (oxoglutarate dehydrogenase L) | 0.24
OGDHL (oxoglutarate dehydrogenase L) | 1.45
QDPR (quinoid dihydropteridine reductase) | 0.87
QDPR (quinoid dihydropteridine reductase) | 1.46
QDPR (quinoid dihydropteridine reductase) | 1.34
QDPR (quinoid dihydropteridine reductase) | 2.07
ZFPL1 (zinc finger protein like 1) | 0.19
ZFPL1 (zinc finger protein like 1) | 0.52
ZFPL1 (zinc finger protein like 1) | 1.04
ZFPL1 (zinc finger protein like 1) | 1.67
SPMIP8 (sperm microtubule inner protein 8) | 0.04
SPMIP8 (sperm microtubule inner protein 8) | 1.35
SPMIP8 (sperm microtubule inner protein 8) | 2.99 (active)
SPMIP8 (sperm microtubule inner protein 8) | 2.28

Not a retest: entries from further up.
Gene | TNF reporter robust z-score
PTCHD3 (patched domain containing 3 (gene/pseudogene)) | -0.02
CCDC15 (coiled-coil domain containing 15) | 0.48
CCDC15 (coiled-coil domain containing 15) | -0.73
CCDC15 (coiled-coil domain containing 15) | -0.62
CCDC15 (coiled-coil domain containing 15) | -1.38
ATP6V0A4 (ATPase H+ transporting V0 subunit a4) | -1.08
